Experiment [1] addresses Patronin–GFP (Drosophila melanogaster) (UniProt A1ZAU8). Description: co-IP; Drosophila embryo lysates (10 mM Tris-HCl pH 7.5, 150 mM NaCl, 0.5% NP-40, 0.5 mM EDTA, phosphatase and protease inhibitors), pre-cleared, YFP- or GFP-tagged bait captured on GFP Trap-M beads; preys detected by western blot.
Experiment [2] has as its target Shot–GFP (Drosophila melanogaster) (UniProt A1Z9J1). Described as above.

Chains of the proteins cited; added tags and fusions are not shown.
UniProt A1ZAU8: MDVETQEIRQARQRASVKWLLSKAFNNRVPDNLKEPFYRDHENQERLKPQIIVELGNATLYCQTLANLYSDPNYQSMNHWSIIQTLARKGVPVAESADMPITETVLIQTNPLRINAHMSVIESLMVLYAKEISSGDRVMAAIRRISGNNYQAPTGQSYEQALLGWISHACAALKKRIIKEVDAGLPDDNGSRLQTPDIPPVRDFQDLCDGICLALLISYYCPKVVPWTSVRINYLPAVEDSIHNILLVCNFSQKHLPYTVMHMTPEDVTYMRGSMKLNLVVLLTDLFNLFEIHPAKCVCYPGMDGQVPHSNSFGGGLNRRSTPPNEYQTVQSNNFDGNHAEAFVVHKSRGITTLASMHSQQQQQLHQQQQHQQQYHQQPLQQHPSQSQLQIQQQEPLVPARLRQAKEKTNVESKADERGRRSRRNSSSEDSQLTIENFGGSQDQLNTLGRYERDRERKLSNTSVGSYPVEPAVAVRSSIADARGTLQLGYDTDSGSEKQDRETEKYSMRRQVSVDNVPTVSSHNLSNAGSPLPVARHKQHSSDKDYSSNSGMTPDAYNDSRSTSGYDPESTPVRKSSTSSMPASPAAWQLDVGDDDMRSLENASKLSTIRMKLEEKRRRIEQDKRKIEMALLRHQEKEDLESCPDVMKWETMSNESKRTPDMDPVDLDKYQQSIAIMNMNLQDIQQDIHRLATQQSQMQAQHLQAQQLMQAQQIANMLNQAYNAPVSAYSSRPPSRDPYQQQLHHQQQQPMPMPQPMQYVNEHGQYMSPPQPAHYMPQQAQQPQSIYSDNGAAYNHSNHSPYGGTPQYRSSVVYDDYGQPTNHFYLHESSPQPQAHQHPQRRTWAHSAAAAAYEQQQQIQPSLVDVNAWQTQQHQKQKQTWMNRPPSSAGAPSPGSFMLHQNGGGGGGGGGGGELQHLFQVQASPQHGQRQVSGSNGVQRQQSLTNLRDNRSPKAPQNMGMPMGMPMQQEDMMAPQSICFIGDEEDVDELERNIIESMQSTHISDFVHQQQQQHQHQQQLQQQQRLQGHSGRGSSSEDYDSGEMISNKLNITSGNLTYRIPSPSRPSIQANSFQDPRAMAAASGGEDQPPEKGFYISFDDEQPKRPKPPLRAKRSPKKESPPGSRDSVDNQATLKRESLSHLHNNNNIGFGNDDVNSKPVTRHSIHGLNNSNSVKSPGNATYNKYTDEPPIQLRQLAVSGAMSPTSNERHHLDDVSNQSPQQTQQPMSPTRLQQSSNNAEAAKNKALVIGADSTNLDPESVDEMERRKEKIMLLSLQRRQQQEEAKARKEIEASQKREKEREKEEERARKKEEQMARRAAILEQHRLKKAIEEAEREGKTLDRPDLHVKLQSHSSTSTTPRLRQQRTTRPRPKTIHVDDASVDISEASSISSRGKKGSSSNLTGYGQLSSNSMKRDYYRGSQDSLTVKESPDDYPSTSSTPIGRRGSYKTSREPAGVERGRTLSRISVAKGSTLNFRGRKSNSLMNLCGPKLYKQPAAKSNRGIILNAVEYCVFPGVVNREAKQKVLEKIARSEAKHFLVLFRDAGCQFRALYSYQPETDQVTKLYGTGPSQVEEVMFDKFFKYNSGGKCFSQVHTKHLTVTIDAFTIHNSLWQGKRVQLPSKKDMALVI
UniProt P13395: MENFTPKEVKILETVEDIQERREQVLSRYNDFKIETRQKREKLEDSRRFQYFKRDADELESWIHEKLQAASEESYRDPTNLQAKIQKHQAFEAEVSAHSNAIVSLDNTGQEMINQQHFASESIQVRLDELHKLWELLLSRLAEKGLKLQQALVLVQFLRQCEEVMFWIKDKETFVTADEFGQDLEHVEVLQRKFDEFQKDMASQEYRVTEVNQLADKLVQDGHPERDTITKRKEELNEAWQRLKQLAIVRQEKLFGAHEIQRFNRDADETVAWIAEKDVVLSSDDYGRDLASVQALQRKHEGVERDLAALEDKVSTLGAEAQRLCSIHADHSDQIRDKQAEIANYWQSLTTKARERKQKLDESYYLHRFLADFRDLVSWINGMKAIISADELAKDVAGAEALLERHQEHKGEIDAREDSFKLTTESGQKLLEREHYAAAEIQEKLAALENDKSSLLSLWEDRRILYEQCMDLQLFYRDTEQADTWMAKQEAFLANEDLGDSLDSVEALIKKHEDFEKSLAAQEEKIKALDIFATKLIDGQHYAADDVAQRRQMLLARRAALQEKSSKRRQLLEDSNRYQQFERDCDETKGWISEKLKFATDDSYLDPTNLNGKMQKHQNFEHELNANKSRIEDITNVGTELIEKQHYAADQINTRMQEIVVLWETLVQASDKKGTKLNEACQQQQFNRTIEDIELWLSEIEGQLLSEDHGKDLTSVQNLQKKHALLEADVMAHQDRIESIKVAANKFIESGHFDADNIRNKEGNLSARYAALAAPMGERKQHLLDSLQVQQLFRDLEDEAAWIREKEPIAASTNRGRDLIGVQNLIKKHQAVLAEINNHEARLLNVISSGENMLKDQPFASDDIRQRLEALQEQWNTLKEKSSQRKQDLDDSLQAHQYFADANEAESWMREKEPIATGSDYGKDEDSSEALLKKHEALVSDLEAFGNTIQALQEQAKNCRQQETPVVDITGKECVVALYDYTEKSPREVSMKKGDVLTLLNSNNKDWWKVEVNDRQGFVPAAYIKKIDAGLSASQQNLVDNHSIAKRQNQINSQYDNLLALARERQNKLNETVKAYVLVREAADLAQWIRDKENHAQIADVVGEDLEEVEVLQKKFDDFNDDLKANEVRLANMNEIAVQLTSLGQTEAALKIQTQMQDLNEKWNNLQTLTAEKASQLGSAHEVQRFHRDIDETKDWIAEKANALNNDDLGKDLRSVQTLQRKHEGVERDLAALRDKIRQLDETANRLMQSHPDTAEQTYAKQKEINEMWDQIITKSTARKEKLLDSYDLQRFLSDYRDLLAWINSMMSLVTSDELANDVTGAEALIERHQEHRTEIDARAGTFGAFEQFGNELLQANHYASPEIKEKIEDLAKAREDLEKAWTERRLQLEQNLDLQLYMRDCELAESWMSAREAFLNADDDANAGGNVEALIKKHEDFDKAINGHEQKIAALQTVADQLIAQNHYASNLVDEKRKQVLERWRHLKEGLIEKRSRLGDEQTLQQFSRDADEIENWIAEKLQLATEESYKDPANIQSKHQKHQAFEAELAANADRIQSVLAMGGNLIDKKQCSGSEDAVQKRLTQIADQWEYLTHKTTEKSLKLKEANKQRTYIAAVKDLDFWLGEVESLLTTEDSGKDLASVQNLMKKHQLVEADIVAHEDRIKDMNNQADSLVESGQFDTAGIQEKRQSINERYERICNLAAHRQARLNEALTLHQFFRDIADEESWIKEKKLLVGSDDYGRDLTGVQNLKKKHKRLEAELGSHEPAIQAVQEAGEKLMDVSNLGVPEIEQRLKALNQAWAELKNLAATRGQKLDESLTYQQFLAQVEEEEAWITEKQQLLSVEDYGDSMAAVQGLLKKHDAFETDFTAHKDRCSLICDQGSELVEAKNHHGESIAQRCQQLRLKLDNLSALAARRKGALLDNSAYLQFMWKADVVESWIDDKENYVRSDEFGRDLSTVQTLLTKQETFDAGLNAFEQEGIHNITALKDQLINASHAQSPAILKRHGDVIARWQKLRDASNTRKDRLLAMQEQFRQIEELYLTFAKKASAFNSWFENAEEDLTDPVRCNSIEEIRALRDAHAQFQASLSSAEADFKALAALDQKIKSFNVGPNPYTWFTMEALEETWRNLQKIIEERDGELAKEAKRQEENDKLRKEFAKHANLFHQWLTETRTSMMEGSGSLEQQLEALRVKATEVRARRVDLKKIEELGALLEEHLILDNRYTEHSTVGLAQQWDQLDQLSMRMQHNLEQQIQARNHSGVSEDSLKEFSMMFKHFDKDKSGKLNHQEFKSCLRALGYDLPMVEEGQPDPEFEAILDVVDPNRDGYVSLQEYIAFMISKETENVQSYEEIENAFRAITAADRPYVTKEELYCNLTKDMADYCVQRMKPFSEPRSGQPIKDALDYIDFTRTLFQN

Results are given in words; binding and its absence hold for the method and conditions named. Binding seen in cells or lysates may run through a third protein. Some binding calls cover weakened binding; strength is not graded here.

Regarding Shortstop (from UniProt A1Z9J1 1-5501), in experiment [1], the binding result is given as “binds”.

With α-Spectrin (from UniProt P13395 1-2415), the binding result in experiment [2] and in experiment [1] was “binds” throughout.

(Values after article PMC4958304.)
